# Experimental data as given in patent US20050089590A1, “Method for protection of skin against sun-induced damage by oral administration of an extract of Emblica officinalis (syn. Phyllanthus emblica)” (priority 2003, published 2005).
# At least one structure is not confirmed: it was looked up by name or label, or the drawing left a doubt.
# Experiments:
# [1] = Metal chelation: UV spectrophotometric test for a free coordination site in the Fe^3+-antioxidant complex (azide displacement); assay type: physicochemical; settings: 1.0 mM Fe^3+, 5 mM chelator
# [2] = Metal chelation: UV spectral data of Cu^2+ chelator complexes (azide-induced shift); assay type: physicochemical; settings: 1.0 mM Cu^2+, 5 mM chelator
# [3] = 1 M NaN3, 50 mM phosphate buffer, pH 7.4, differential scan vs. same solution without sodium azide
structure (smiles),measurement,setting,value
Cc1c(C)c2c(c(C)c1O)CCC(C)(C(=O)O)O2 (stereo not shown) [Trolox C],Absorption Maxima of Complex (λmax in nm) With Fe^3+,"[1]; 50 mM phosphate buffer, pH 7.4","240, 284 nm"
same,Absorption Maxima of Complex (λmax in nm) N3 Induced Shift,[1]; [3],"240, 273, 284, 360 nm"
same,Absorption Maxima of Complex (λmax in nm) With Cu^2+,"[2]; 50 mM phosphate buffer, pH 7.4","241, 288 nm"
same,Absorption Maxima of Complex (λmax in nm) N3 Induced Shift,[2]; [3],"241, 261, 352, 440 nm"
